Source: PubChem BioAssay AID1259308 (NCATS, 2017)
Shown is one part, drawn at random, of about 59,000 deposited reagents. In the full data, about 1,510 (2.6%) got an active call. 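Calls use total luciferase alone and ignore viability, so some active siRNAs may act by altering cell number.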 A number with no mark means an inactive call. The numbers tell different reagents against one gene apart.

- Aim: 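Knock-downs that increase output of a recombinant reporter protein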 (primary screen)
- Cell system: human HEK293 embryonic kidney cells stably expressing firefly luciferase (HEK-CMV-Luc2-Hygro)
- Reagents: single siRNA against human genes, 0.8 pmol siRNA per well
- Timing: 72 h
- Read-out: 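Luciferase light (ONE-Glo) measured on one replicate plate set and viability (CellTiter-Glo) on the other, scaled to a negative control siRNA, with robust z-scores and luciferase per cell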
- Reading the numbers: total luciferase, z-score and total luciferase, % of control: higher = more reporter protein produced; luciferase per cell, z-score: higher = more reporter output per viable cell; viable cells, % of control: higher = more viable cells
- Rule for the call: 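An siRNA counts as active if its total luciferase robust z-score exceeds 3; genes with two or more such siRNAs out of three were retested with fresh siRNAs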
- Meaning of the calls: active = raised luciferase; inactive = no rise

| gene | reagent | total luciferase, z-score | total luciferase, % of control | luciferase per cell, z-score | viable cells, % of control |
| --- | --- | --- | --- | --- | --- |
| FCN2 (GeneID 2220) | 1 | 0.0669 | 83.2 | 0.649 | 78.4 |
| FCN2 (GeneID 2220) | 2 | -0.0738 | 80.4 | 0.671 | 75.3 |
| FCN2 (GeneID 2220) | 3 | -1.43 | 53.4 | -1.12 | 80.1 |
| FLT1 (GeneID 2321) | 1 | 0.584 | 93.5 | 1.58 | 68.9 |
| FLT1 (GeneID 2321) | 2 | 1.44 | 111 | 0.827 | 99.4 |
| FLT1 (GeneID 2321) | 3 | 0.253 | 86.9 | -0.651 | 115 |
| SSTR2 (GeneID 6752) | 1 | 3.18 (active) | 145 | 4.12 | 54.8 |
| SSTR2 (GeneID 6752) | 2 | 1.99 | 122 | 1.18 | 99.4 |
| SSTR2 (GeneID 6752) | 3 | -0.615 | 69.6 | -0.741 | 94.6 |
| GPHB5 (GeneID 122876) | 1 | -2.51 | 32 | -1.94 | 59.5 |
| GPHB5 (GeneID 122876) | 2 | -0.949 | 63 | -0.179 | 73.8 |
| GPHB5 (GeneID 122876) | 3 | -0.318 | 75.6 | -0.276 | 90.8 |
| JRK (GeneID 8629) | 1 | -0.14 | 79.1 | -1.21 | 121 |
| JRK (GeneID 8629) | 2 | 0.284 | 87.5 | -0.58 | 114 |
| JRK (GeneID 8629) | 3 | 0.383 | 89.5 | 0.181 | 95.4 |
| FBP1 (GeneID 2203) | 1 | -0.575 | 70.4 | -0.273 | 84.6 |
| FBP1 (GeneID 2203) | 2 | 0.412 | 90.1 | 0.24 | 94.5 |
| FBP1 (GeneID 2203) | 3 | -0.279 | 76.3 | -0.544 | 98.4 |
| TXNDC9 (GeneID 10190) | 1 | 1.11 | 104 | 1.29 | 82.7 |
| TXNDC9 (GeneID 10190) | 2 | 0.103 | 83.9 | -0.116 | 96.7 |
| TXNDC9 (GeneID 10190) | 3 | -0.376 | 74.4 | 0.379 | 75.2 |
| TXNDC15 (GeneID 79770) | 1 | -0.388 | 74.2 | -0.502 | 94.6 |
| TXNDC15 (GeneID 79770) | 2 | 0.167 | 85.2 | 0.501 | 83.5 |
| TXNDC15 (GeneID 79770) | 3 | -0.237 | 77.2 | -0.415 | 96.2 |
| PTAFR (GeneID 5724) | 1 | -0.602 | 69.9 | -0.907 | 99.2 |
| PTAFR (GeneID 5724) | 2 | 0.505 | 91.9 | 1.31 | 72.7 |
| PTAFR (GeneID 5724) | 3 | -0.572 | 70.5 | -0.35 | 86.4 |
| GPAA1 (GeneID 8733) | 1 | -0.452 | 72.9 | -0.655 | 96.8 |
| GPAA1 (GeneID 8733) | 2 | 2.12 | 124 | 1.6 | 90.8 |
| GPAA1 (GeneID 8733) | 3 | -0.167 | 78.6 | -0.327 | 95.7 |
| PKIG (GeneID 11142) | 1 | 1.93 | 120 | 1.62 | 87.8 |
| PKIG (GeneID 11142) | 2 | -0.342 | 75.1 | -0.82 | 104 |
| PKIG (GeneID 11142) | 3 | 0.375 | 89.3 | 0.81 | 80.7 |
| OR51M1 (GeneID 390059) | 1 | 0.99 | 102 | 1.31 | 80.3 |
| OR51M1 (GeneID 390059) | 2 | -0.156 | 78.8 | -0.251 | 94 |
| OR51M1 (GeneID 390059) | 3 | 0.905 | 99.9 | 0.803 | 90.3 |
| PSMD4 (GeneID 5710) | 1 | 2.21 | 126 | 2.46 | 73.5 |
| PSMD4 (GeneID 5710) | 2 | 1.75 | 117 | 1.74 | 82.6 |
| PSMD4 (GeneID 5710) | 3 | 2.38 | 129 | 2.01 | 85.1 |
| ANKDD1A (GeneID 348094) | 1 | -0.605 | 69.9 | 0.398 | 70.3 |
| ANKDD1A (GeneID 348094) | 2 | 0.751 | 96.8 | 1.09 | 81.3 |
| ANKDD1A (GeneID 348094) | 3 | 1.61 | 114 | 2.09 | 73.3 |
| ATIC (GeneID 471) | 1 | 1.86 | 119 | 1.33 | 93.6 |
| ATIC (GeneID 471) | 2 | 0.239 | 86.6 | 0.386 | 87.5 |
| ATIC (GeneID 471) | 3 | -1.21 | 57.9 | -1.04 | 85.2 |
| GSTM1 (GeneID 2944) | 1 | -0.379 | 74.4 | -0.502 | 94.8 |
| GSTM1 (GeneID 2944) | 2 | -1.31 | 55.8 | -1.5 | 92.6 |
| GSTM1 (GeneID 2944) | 3 | -1 | 61.9 | -0.914 | 88 |
| ZFAT (GeneID 57623) | 1 | 4.33 (active) | 168 | 2.66 | 93.2 |
| ZFAT (GeneID 57623) | 2 | 0.0522 | 82.9 | 0.431 | 82.7 |
| ZFAT (GeneID 57623) | 3 | -0.711 | 67.8 | -1.33 | 107 |
| ZNF699 (GeneID 374879) | 1 | 0.177 | 85.4 | 0.927 | 74.8 |
| ZNF699 (GeneID 374879) | 2 | 0.463 | 91.1 | 0.1 | 99.1 |
| ZNF699 (GeneID 374879) | 3 | -1.22 | 57.7 | -0.686 | 77.3 |
| KCNS3 (GeneID 3790) | 1 | -0.341 | 75.1 | 0.00167 | 83.9 |
| KCNS3 (GeneID 3790) | 2 | -0.982 | 62.4 | -1.03 | 91.4 |
| KCNS3 (GeneID 3790) | 3 | 0.126 | 84.4 | -0.34 | 103 |

3 entries already listed, arranged by “luciferase per cell, z-score”, high to low:
| gene | reagent | total luciferase, z-score | total luciferase, % of control | luciferase per cell, z-score | viable cells, % of control |
| --- | --- | --- | --- | --- | --- |
| FLT1 (GeneID 2321) | 1 | 0.584 | 93.5 | 1.58 | 68.9 |
| FCN2 (GeneID 2220) | 2 | -0.0738 | 80.4 | 0.671 | 75.3 |
| FCN2 (GeneID 2220) | 3 | -1.43 | 53.4 | -1.12 | 80.1 |
